Measurements reported in PubChem BioAssay AID504784 (Drosophila RNAi Screening Center, 2011).

- Purpose: 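Fly genes whose silencing alters how much lipid cells keep in droplets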 (primary screen)
- Cell system: Drosophila Kc167 embryonic cells
- Reagent: long dsRNA against Drosophila genes, about 250 ng dsRNA per well
- Timing: 4 days
- Treatment: cells fed 400 µM oleic acid bound to BSA
- Measurement: 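Cells imaged and segmented; ratio of lipid droplet area to nuclear area, log-transformed, then normalised as a B-score over the screen; higher means more stored lipid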
- Reading the numbers: droplet/nuclear area B-score: higher = more stored lipid (overstorage)
The screen tested about 17,000 reagents; shown is an unselected part of those that have a named target and a result. 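Each column is one replicate's B-score; the combined score over replicates was not deposited, so single values may mislead.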 The numbers tell different reagents against one gene apart.

gene knocked down	reagent	droplet/nuclear area B-score, replicate 1	droplet/nuclear area B-score, replicate 2	droplet/nuclear area B-score, replicate 3
esc (GeneID 34595)	1	0.232	-0.15	
hng2 (GeneID 41056)	1	0.00126	-0.126	
Rsph1 (GeneID 34712)	1	-0.632	-0.514	
HisT (GeneID 35697)	1	0.769	-0.664	
HisT (GeneID 35697)	2	2.76		
Ube3a (GeneID 39266)	1	-0.92	-0.281	
Dsor1 (GeneID 31872)	1	0.468	-1.22	0.416
CG31300 (GeneID 326132)	1	-1.18	-1.1	
CG12917 (GeneID 36065)	1	0.647	-0.144	
nullo (GeneID 31652)	1	-1.32	-0.114	
Septin1 (GeneID 33114)	1	2.2	-1.32	
CG4953 (GeneID 34373)	1	0.405	1.26	
CG5149 (GeneID 34013)	1	0.965	-0.159	
Reepl1 (GeneID 32103)	1	-1.07	-1.47	-0.233
Mst77F (GeneID 40304)	1	-1.51	0.738	
CG32026 (GeneID 317829)	1	-0.521	-0.0553	
CG18404 (GeneID 43603)	1	0.364		

In a second layout: results already given
gene knocked down | reagent | droplet/nuclear area B-score, replicate 1 | droplet/nuclear area B-score, replicate 2 | droplet/nuclear area B-score, replicate 3
CG31300 (GeneID 326132) | 1 | -1.18 | -1.1 | –
CG12917 (GeneID 36065) | 1 | 0.647 | -0.144 | –
nullo (GeneID 31652) | 1 | -1.32 | -0.114 | –
Septin1 (GeneID 33114) | 1 | 2.2 | -1.32 | –
CG4953 (GeneID 34373) | 1 | 0.405 | 1.26 | –

Additional records follow:
gene knocked down	reagent	droplet/nuclear area B-score, replicate 1	droplet/nuclear area B-score, replicate 2	droplet/nuclear area B-score, replicate 3
CG4666 (GeneID 31541)	1	-0.347	-0.0365	
RpL27A (GeneID 33654)	1	2.37	3.47	
ida (GeneID 45574)	1	0.0349	0.477	
loh (GeneID 34435)	1	-0.674	0.192	
loh (GeneID 34435)	2	-0.067	-0.91	
kraken (GeneID 33265)	1	0.266	-0.951	
Jhe (GeneID 36780)	1	1.38	-1.38	
ERR (GeneID 38912)	1	0.2	0.405	
pds5 (GeneID 36286)	1	0.0811	-0.0832	
Edg78E (GeneID 40354)	1	0.65	0.435	
CG15431 (GeneID 33646)	1	0.72	0.0235	
CG11417 (GeneID 31083)	1	0.459		
CG32532 (GeneID 32943)	1	0.517	-0.424	
CG32532 (GeneID 32943)	2	-0.965	0.927	
CG32532 (GeneID 32943)	3	-0.305	-0.385	
CG13063 (GeneID 39797)	1	-1.66	-1.38	
HP1e (GeneID 41108)	1	0.135	-0.536	
